Experimental findings from paper PMC11749140 are described below.

Chains of the proteins cited; added tags and fusions are not shown.
UniProt P68373: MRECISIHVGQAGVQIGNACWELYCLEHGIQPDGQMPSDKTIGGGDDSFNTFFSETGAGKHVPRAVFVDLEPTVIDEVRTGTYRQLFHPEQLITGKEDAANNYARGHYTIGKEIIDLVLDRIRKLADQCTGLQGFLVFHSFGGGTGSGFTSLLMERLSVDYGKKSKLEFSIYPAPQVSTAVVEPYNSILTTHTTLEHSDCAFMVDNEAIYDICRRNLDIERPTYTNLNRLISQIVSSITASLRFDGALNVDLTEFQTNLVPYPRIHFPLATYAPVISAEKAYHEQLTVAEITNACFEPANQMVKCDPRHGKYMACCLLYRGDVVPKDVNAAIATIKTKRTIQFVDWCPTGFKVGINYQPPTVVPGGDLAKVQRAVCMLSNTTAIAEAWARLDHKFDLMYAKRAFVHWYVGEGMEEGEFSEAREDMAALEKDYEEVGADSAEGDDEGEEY

This test addresses Iqcn-3×FLAG (mouse Iqcn, FLAG-tagged, from Iqcn-3×FLAG+/+ transgenic mice) (mouse). The test is described as follows: co-IP; IP with testicular tissue extracts and sperm from Iqcn-3×FLAG+/+ mice (lines 7# and 13#); FLAG-tagged Iqcn.

No constants are given. Whether binding was seen depends on the method and setting. Binding seen in cells or lysates may run through a third protein. Some entries that bind do so weakly or less than the wild type.

As for “Actbl2 (mouse) (from UniProt Q8BFZ3 1-376)”, the binding result was “binds”.
The entry for “Capzb (mouse) (from UniProt P47757 1-277)” is “binds”; for “Tuba1c (mouse) (from UniProt P68373 1-449)” it is “binds”.

B1: Actl7a (mouse) (protein, UniProt Q9QY84 1-440)
chain: MSLDGVWAPQTANIGDGPAKKASDQASMQTQVLQTASLKDGPAKRAVWVRRDNAETEDPVKSTMSKDRPRLEVTKAVVVDLGTGFCKCGFAGLPKPTHKISTTVGKPYMETAKTGDNRKETFVGHELFNPDIHLKLVNPLRHGIIVDWDTVQDIWEYLFRQEMKIAPEEHAVLVSDPPLSPHTNREKYAEMLFETFNTPAMHIAYQSRLSMYSYGRTSGLVVEVGHGVSYVVPIYEGYPLPSITGRLDYAGSDLTTYLMNLMNNSGKHFSEDHLGIVEDIKTRCCFVALDPIEEKKIPAPEHEIHYTLPDGKEIRLGQERFLCSEMFFKPSLIKSMQLGLHTQTVSCLNKCDIALKRDLMGNILLCGGSTMLRGFPNRLQKELSSMCPNDTPQVNVLPERDTAVWTGGSILASLQGFQPLWVHRLEYEEHGPFFLYRRCF
Turning to B1, the binding entry is given as “binds”.
